From patent publication US20160289339A1
Results are given in words; binding and its absence hold for the method and conditions named. Some results given as binding are weak or reduced against the parent protein; the word gives no strength.

Amino acid sequences for entries named in this document (tags omitted). A change or cut given only in a name is not applied to a line headed by its entry.
UniProt P01876: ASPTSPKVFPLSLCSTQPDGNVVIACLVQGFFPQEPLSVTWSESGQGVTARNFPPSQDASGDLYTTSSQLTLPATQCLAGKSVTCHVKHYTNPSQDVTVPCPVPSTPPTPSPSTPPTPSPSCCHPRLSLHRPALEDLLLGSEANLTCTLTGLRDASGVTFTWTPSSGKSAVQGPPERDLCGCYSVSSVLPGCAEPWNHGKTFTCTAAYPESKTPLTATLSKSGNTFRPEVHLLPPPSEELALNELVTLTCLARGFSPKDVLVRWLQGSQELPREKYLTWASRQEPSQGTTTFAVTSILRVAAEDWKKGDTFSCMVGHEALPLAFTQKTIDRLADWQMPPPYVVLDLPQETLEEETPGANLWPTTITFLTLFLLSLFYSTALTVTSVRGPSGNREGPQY

Target: mα1.FcL-456C expressed on Ramos cells (human) (UniProt P01876)
Test: flow cytometry on Ramos/mα1.FcL-456C cells, 1 and 10 µg/ml

B1: anti-migis-α mAb 8G7 (antibody, V domains shown)
VH: EVQLQESGPSLVKPSQTLSLTCSVTGDSITNGYWNWIRKFPGNKLEYMGYISYSGSTYYNPSLKSRIFITRDTSKNQYYLQLNSVTTEDTAIYYCARWLGGRAYWGQGTTLIVSS
VL: DIVMTQSQKFMSTSVGDRVSVTCKASQNVGTNVVWYQQKPGQSPKTLIYSASRRFSGVPDRFTGSGSGTDFTLTISNVQSEDLAEYFCQQYNSYPLTFGAGTKLELK
Question: How did the binding turn out when B1 was run?
Answer: binds
